The values that follow come from the supplement of paper PMC4604168 (melanoma cell lines).

Among the test systems are WM115; WM1716; WM1745; WM3526; WM3619; WM451Lu.
What all share (experiment): cleaved PARP positive nuclei fraction relative to DMSO control; melanoma cells; higher = more apoptosis
Common to all, as to conditions: library dose: low library concentration; 72 h

The list shows a part of the results. Single values are uncertain, as repeats are few or missing.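 Cells were imaged in 1,536-well plates, and nuclei stained with an antibody against cleaved PARP were counted against all DNA-stained nuclei to give the apoptosis fraction. Screening doses were chosen to leave most cells alive, and resting and induced cleaved-PARP levels differ strongly between cell lines.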

Consider `CS(=O)(=O)c1ccc(C(=O)Nc2ccc(Cl)c(-c3ccccn3)c2)c(Cl)c1` [vismodegib] + O=C(CCCCCCC(=O)Nc1ccccc1)NO [vorinostat] (first compound 1 µM, partner dose 0.08 µM), for which the “cleaved PARP positive nuclei fraction” value turned out to be 56.3% in the assay on WM115; 135% in the assay on WM1716; 88.4% with WM1745; 69% in the assay with WM3526; 97.1% in the assay on WM3619; 78.1% in the assay with WM451Lu.

On to `CCCCCCCCc1ccc(CCC(N)(CO)CO)cc1` [fingolimod] + CN(c1ncccc1CNc1nc(Nc2ccc3c(c2)CC(=O)N3)ncc1C(F)(F)F)S(C)(=O)=O [PF562271] (first compound 2 µM, partner dose 0.08 µM), for which the “cleaved PARP positive nuclei fraction” value came out at 268% with WM115; 23.8% in the assay with WM1716; 147% with WM1745; 87.5% in the assay with WM3526; 124% in the assay with WM3619; 103% with WM451Lu.

As to `COc1ccc(C2=N[C@@H](c3ccc(Cl)cc3)[C@@H](c3ccc(Cl)cc3)N2C(=O)N2CCNC(=O)C2)c(OC(C)C)c1` [Nutlin-3] + Nc1ncn([C@H]2C[C@H](O)[C@@H](CO)O2)c(=O)n1 [decitabine] (first compound 0.1 µM, partner dose 0.1 µM), the “cleaved PARP positive nuclei fraction” value in the assay with WM115 was 167%; in the assay on WM1716, 166%; with WM1745, 105%; in the assay with WM3526 it was 70.5%; with WM3619, 110%; in the assay on WM451Lu, 37.3%.

Take `CN(c1ncccc1CNc1nc(Nc2ccc3c(c2)CC(=O)N3)ncc1C(F)(F)F)S(C)(=O)=O` + NC(=O)Nc1cc(-c2cccc(F)c2)sc1C(=O)N[C@H]1CCCNC1 [AZD7762] (first compound 0.08 µM, partner dose 0.02 µM): the “cleaved PARP positive nuclei fraction” value in the assay on WM115 stood at 168%; in the assay with WM1716, 254%; with WM1745 it was 106%; in the assay on WM3526, 107%; in the assay with WM3619, 145%; with WM451Lu, 152%.

On to `Cn1cnc2c(F)c(Nc3ccc(Br)cc3Cl)c(C(=O)NOCCO)cc21` [selumetinib] + Cc1ccc(NC(=O)c2cccc(N(C)C)c2)cc1NC(=O)c1ccc(O)cc1 [ZM336372] (first compound 0.015 µM, partner dose 2 µM), for which the “cleaved PARP positive nuclei fraction” value with WM115 turned out to be 214%; in the assay on WM1716 it was 41.9%; in the assay on WM1745, 105%; with WM3526, 66.2%; in the assay with WM3619, 58.6%; in the assay on WM451Lu, 144%.

Take `CC(=O)O[C@@]12CO[C@@H]1C[C@H](O)[C@@]1(C)C(=O)[C@H](O)C3=C(C)[C@@H](OC(=O)[C@H](O)[C@@H](NC(=O)OC(C)(C)C)c4ccccc4)C[C@@](O)([C@@H](OC(=O)c4ccccc4)[C@H]21)C3(C)C` [Docetaxel] + Nc1nc(F)nc2c1ncn2[C@@H]1O[C@H](CO)[C@@H](O)[C@@H]1O [fludarabine] (first compound 0.0001 µM, partner dose 0.2 µM): the “cleaved PARP positive nuclei fraction” value was 455% with WM115; 217% in the assay with WM1716; 219% with WM1745; 336% in the assay on WM3526; 155% in the assay with WM3619; 105% in the assay on WM451Lu.

On to `CCCCCCCCc1ccc(CCC(N)(CO)CO)cc1` [fingolimod] + COc1cc(N2CCC(N3CCN(C)CC3)CC2)ccc1Nc1ncc(Cl)c(Nc2ccccc2S(=O)(=O)C(C)C)n1 [NVP-TAE684] (first compound 2 µM, partner dose 0.08 µM), for which the “cleaved PARP positive nuclei fraction” value worked out at 102% with WM115; 185% in the assay with WM1716; 129% in the assay with WM1745; 73% in the assay on WM3526; 95.4% with WM3619; 50.7% in the assay with WM451Lu.

Turning to `CCN(CC)CCNC(=O)c1c(C)[nH]c(/C=C2\C(=O)Nc3ccc(F)cc32)c1C` [sunitinib] + Cn1c(Nc2ccc(C(F)(F)F)cc2)nc2cc(Oc3ccnc(-c4ncc(C(F)(F)F)[nH]4)c3)ccc21 [CHIR265] (first compound 0.4 µM, partner dose 0.08 µM), the “cleaved PARP positive nuclei fraction” value stood at 491% in the assay on WM115; 66.2% in the assay with WM1716; 155% in the assay with WM1745; 89.8% in the assay on WM3526; 73.8% with WM3619; 40% in the assay on WM451Lu.

Consider `CS(=O)(=O)c1ccc(C(=O)Nc2ccc(Cl)c(-c3ccccn3)c2)c(Cl)c1` [vismodegib] + N#Cc1c(O)c2c(-c3ccc(-c4ccccc4O)cc3)csc2[nH]c1=O [A769662] (first compound 1 µM, partner dose 2 µM), for which the “cleaved PARP positive nuclei fraction” value with WM115 stood at 44.7%; in the assay with WM1716 it was 104%; in the assay on WM1745, 76%; with WM3526 it was 38.7%; in the assay on WM3619 it was 90.9%; in the assay with WM451Lu, 26.9%.

As to `NC(=O)c1ccc(N(C(N)=O)c2c(F)cccc2F)nc1-c1ccc(F)cc1F` + Nc1nc(F)nc2c1ncn2[C@@H]1O[C@H](CO)[C@@H](O)[C@@H]1O [fludarabine] (first compound 0.4 µM, partner dose 0.2 µM), the “cleaved PARP positive nuclei fraction” value with WM115 was 158%; with WM1716, 128%; with WM1745 it was 103%; with WM3526 it was 70.4%; in the assay on WM3619, 77.2%; with WM451Lu, 85.1%.

As to `CCCCCCCCc1ccc(CCC(N)(CO)CO)cc1` [fingolimod] + CN1CCN(c2ccc3nc(-c4c(N)c5c(F)cccc5[nH]c4=O)[nH]c3c2)CC1 [Dovitinib] (first compound 2 µM, partner dose 0.1 µM), the “cleaved PARP positive nuclei fraction” value came out at 89.7% in the assay on WM115; 466% in the assay on WM1716; 117% with WM1745; 83.3% with WM3526; 97.5% with WM3619; 117% in the assay on WM451Lu.

Regarding `Cn1cnc2c(F)c(Nc3ccc(Br)cc3Cl)c(C(=O)NOCCO)cc21` [selumetinib] + NCC(=O)Nc1ccc(-n2nc(C(F)(F)F)cc2-c2ccc3c(ccc4ccccc43)c2)cc1 [OSU03012] (first compound 0.015 µM, partner dose 1 µM), the “cleaved PARP positive nuclei fraction” value in the assay with WM115 was found to be 152%; in the assay on WM1716, 36.2%; in the assay with WM1745 it was 80.3%; with WM3526 it was 110%; with WM3619, 129%; in the assay on WM451Lu it was 50.5%.

Consider `Cn1sc(=O)n(Cc2ccccc2)c1=O` + O=c1cc(-c2cccc3c2Sc2ccccc2S3)oc(N2CCOCC2)c1 [KU55933] (first compound 0.4 µM, partner dose 1 µM), for which the “cleaved PARP positive nuclei fraction” value in the assay on WM115 worked out at 77.2%; with WM1716, 104%; in the assay with WM1745 it was 98.6%; in the assay on WM3526, 40.8%; with WM3619, 78.9%; in the assay with WM451Lu, 95.8%.

As for `CC1(C)CCC(c2ccc(Cl)cc2)=C(CN2CCN(c3ccc(C(=O)NS(=O)(=O)c4ccc(N[C@H](CCN5CCOCC5)CSc5ccccc5)c(S(=O)(=O)C(F)(F)F)c4)cc3)CC2)C1` + C#Cc1cccc(Nc2ncnc3cc(OCCOC)c(OCCOC)cc23)c1 [erlotinib] (first compound 0.4 µM, partner dose 0.8 µM), the “cleaved PARP positive nuclei fraction” value stood at 388% in the assay with WM115; 94.2% with WM1716; 1120% with WM1745; 43.2% in the assay with WM3526; 122% in the assay with WM3619; 180% in the assay on WM451Lu.

For the compound `Cn1sc(=O)n(Cc2ccccc2)c1=O` + O=C(Nc1cccc(Cl)c1)Nc1ncc(CCNc2ncnc3ccsc23)s1 [SNS314] (first compound 0.4 µM, partner dose 0.0008 µM), the “cleaved PARP positive nuclei fraction” value in the assay on WM115 was 118%; in the assay on WM1716, 84.5%; in the assay with WM1745, 106%; in the assay on WM3526 it was 102%; in the assay on WM3619 it was 100%; with WM451Lu, 158%.

Take `CC1(C)CCC(c2ccc(Cl)cc2)=C(CN2CCN(c3ccc(C(=O)NS(=O)(=O)c4ccc(N[C@H](CCN5CCOCC5)CSc5ccccc5)c(S(=O)(=O)C(F)(F)F)c4)cc3)CC2)C1` + CO[C@H]1C[C@@H]2CC[C@@H](C)[C@@](O)(O2)C(=O)C(=O)N2CCCC[C@H]2C(=O)O[C@H]([C@H](C)C[C@@H]2CC[C@@H](OCCO)[C@H](OC)C2)CC(=O)[C@H](C)/C=C(\C)[C@@H](O)[C@@H](OC)C(=O)[C@H](C)C[C@H](C)/C=C/C=C/C=C/1C [everolimus] (first compound 0.4 µM, partner dose 0.02 µM): the “cleaved PARP positive nuclei fraction” value in the assay with WM115 is 1290%; with WM1716, 114%; with WM1745 it was 503%; in the assay on WM3526, 75.4%; in the assay on WM3619, 213%; in the assay with WM451Lu it was 179%.

On to `CCCCCCCCc1ccc(CCC(N)(CO)CO)cc1` [fingolimod] + COc1ccc(COc2ccc(Cc3cnc(N)nc3N)cc2OC)cc1 [GW2580] (first compound 2 µM, partner dose 1 µM), for which the “cleaved PARP positive nuclei fraction” value in the assay with WM115 is 81.5%; in the assay on WM1716, 130%; in the assay on WM1745, 99.6%; with WM3526 it was 83.6%; in the assay with WM3619, 94.4%; with WM451Lu, 55.4%.

As to `COc1ccc(C2=N[C@@H](c3ccc(Cl)cc3)[C@@H](c3ccc(Cl)cc3)N2C(=O)N2CCNC(=O)C2)c(OC(C)C)c1` [Nutlin-3] + CCc1ccc(CCOc2ccc(CC3SC(=O)NC3=O)cc2)nc1 [pioglitazone] (first compound 0.1 µM, partner dose 2 µM), the “cleaved PARP positive nuclei fraction” value stood at 106% in the assay with WM115; 108% with WM1716; 76.2% in the assay on WM1745; 244% with WM3526; 81.3% in the assay with WM3619; 37.7% in the assay on WM451Lu.

`CC1(C)CCC(c2ccc(Cl)cc2)=C(CN2CCN(c3ccc(C(=O)NS(=O)(=O)c4ccc(N[C@H](CCN5CCOCC5)CSc5ccccc5)c(S(=O)(=O)C(F)(F)F)c4)cc3)CC2)C1` + CN(c1ncccc1CNc1nc(Nc2ccc3c(c2)CC(=O)N3)ncc1C(F)(F)F)S(C)(=O)=O [PF562271] (first compound 0.4 µM, partner dose 0.08 µM): the “cleaved PARP positive nuclei fraction” value stood at 311% in the assay with WM115; 230% in the assay with WM1716; 1210% in the assay with WM1745; 53.5% in the assay with WM3526; 99.6% with WM3619; 132% with WM451Lu.

For `Cn1sc(=O)n(Cc2ccccc2)c1=O` + Nc1nc(F)nc2c1ncn2[C@@H]1O[C@H](CO)[C@@H](O)[C@@H]1O [fludarabine] (first compound 0.4 µM, partner dose 0.2 µM), the “cleaved PARP positive nuclei fraction” value came to 210% with WM115; 47% in the assay with WM1716; 80.2% in the assay with WM1745; 350% in the assay on WM3526; 105% in the assay with WM3619; 192% in the assay with WM451Lu.

`NC1(c2ccc(-c3nc4ccn5c(=O)[nH]nc5c4cc3-c3ccccc3)cc2)CCC1` + COCC[n+]1c2c(n(Cc3cnccn3)c1C)C(=O)c1ccccc1C2=O [YM155] (first compound 0.4 µM, partner dose 0.0004 µM): the “cleaved PARP positive nuclei fraction” value was determined as 265% in the assay on WM115; 284% in the assay on WM1716; 110% in the assay on WM1745; 86% in the assay on WM3526; 193% in the assay with WM3619; 439% with WM451Lu.

Take `CC1(C)CCC(c2ccc(Cl)cc2)=C(CN2CCN(c3ccc(C(=O)NS(=O)(=O)c4ccc(N[C@H](CCN5CCOCC5)CSc5ccccc5)c(S(=O)(=O)C(F)(F)F)c4)cc3)CC2)C1` + CS(=O)(=O)c1ccc(C(=O)Nc2ccc(Cl)c(-c3ccccn3)c2)c(Cl)c1 [vismodegib] (first compound 0.4 µM, partner dose 1 µM): the “cleaved PARP positive nuclei fraction” value amounted to 532% in the assay with WM115; 477% with WM1716; 304% in the assay with WM1745; 56% in the assay on WM3526; 123% in the assay with WM3619; 27.8% with WM451Lu.

Regarding `CC(=O)O[C@@]12CO[C@@H]1C[C@H](O)[C@@]1(C)C(=O)[C@H](O)C3=C(C)[C@@H](OC(=O)[C@H](O)[C@@H](NC(=O)OC(C)(C)C)c4ccccc4)C[C@@](O)([C@@H](OC(=O)c4ccccc4)[C@H]21)C3(C)C` [Docetaxel] + Cc1cc([N+](=O)[O-])ccc1NS(=O)(=O)c1cc(Cl)ccc1Cl [FH535] (first compound 0.0001 µM, partner dose 1 µM), the “cleaved PARP positive nuclei fraction” value in the assay on WM115 was 234%; in the assay on WM1716 it was 284%; in the assay on WM1745 it was 144%; with WM3526, 160%; in the assay on WM3619, 150%; with WM451Lu it was 364%.
